activity, negative = inhibition data for 35 compounds are collected here from PubChem BioAssay AID1794844 (National Center for Advancing Translational Sciences (NCATS), 2023).

Amino acid sequences for entries named in this document (tags omitted). A change or cut given only in a name is not applied to a line headed by its entry.
UniProt C7C422: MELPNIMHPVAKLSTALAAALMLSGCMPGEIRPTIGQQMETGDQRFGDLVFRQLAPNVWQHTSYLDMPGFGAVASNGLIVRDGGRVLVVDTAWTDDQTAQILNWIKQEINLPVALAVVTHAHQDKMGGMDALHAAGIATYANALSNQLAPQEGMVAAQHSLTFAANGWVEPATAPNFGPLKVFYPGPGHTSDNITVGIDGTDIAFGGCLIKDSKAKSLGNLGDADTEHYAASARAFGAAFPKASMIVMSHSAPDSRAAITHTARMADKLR

In all, about 2,800 compounds went through this assay and fewer than 10 were called active. Not shown: some 7% with an inconclusive outcome. The call rests on the fitted dose curve; in most records, active means well fitted inhibition curve with a large enough effect; inconclusive means small, poorly fitted or top-dose-only effect; inactive means no such curve, though single readings can be large or run the other way. This is one part of the list.

For this assay, the target named is Metallo-beta-lactamase type 2 (Klebsiella pneumoniae) (UniProt C7C422). The assay is described as follows: qHTS to identify inhibitors of the New Delhi Metallo-beta-lactamase (NDM): Nitrocefin screen against the machine-based learning selections. Further: % of control where 0% means no effect. The note with it: NDM-1 enzyme, nitrocefin hydrolysis, absorbance 485 nm; at 57.5 µM (top of the series) unless noted. From the text:
Assay Submitter (PI): James Inglese Ph.D., Patricia Dranchak Ph.D., Mahesh Aitha Ph.D. Assay Development and Screening Technology Laboratory (ADST) National Center for Advancing Translational Sciences (NCATS), Rockville, MD National Institute of Health (NIH), Bethesda, Maryland The metallo-beta-lactamases (MBL) are a main antibiotic resistance mechanism evolved by bacteria. There is an urgent clinical need for MBL inhibitors to mitigate this growing threat. To support a machine-based learning study, qHTS has been used to experimentally test inhibitors identified by prediction tools.
PROTOCOL TABLE (as described by Inglese et al., 2007) SEQUENCE No. (e.g., 1, 2, 3, etc.); […] (e.g., enzyme, Incubation, Reagent, etc.); VALUE; DESCRIPTION Primary Screen 1; NDM-1; 4 uL of 3 nM enzyme [2 nM final] in 50 mM HEPES (pH 7.0), 1 uM […], 0.01% Tween20; Use BioRaptr to dispense into two sets of Aurora black, clear bottom high base 1536-well plates 2; Compounds; 23 nL; Use Pin Tool (Wako) to transfer DMSO control and library compounds in DMSO 3; Incubate; >30 min 4a; Reagent; 2 uL of 50 uM nitrocefin [16.7 uM final] to one set of assay plates 4b; Reagent; 2 uL of 150 uM meropenem [50 uM final] to second set of assay plates 5a; Incubate; 15 min 5b; Incubate; 30 min 6a; Detector; Absorbance at 485 nm (bandwidth = 5 nm, 25 flashes/well) on Tecan Infinity 6b; Detector; Absorbance at 300 nm (bandwidth = 5 nm, 25 flashes/well) on Tecan Infinity NOTES (numbers refer to sequence above) 1; Column 1 of each plate received assay buffer without enzyme and columns 2-48 received enzyme for a final assay concentration of 2 nM. 2; Control plate contained DMSO in columns 1, 2, 3, and 4. 3; Compound interaction with enzyme. 4; Nitrocefin and meropenem substrates were prepared in the same assay buffer as step 1 for a final assay concentration of 16.7 uM and 50 uM, respectively, and added to all wells across respective sets of assay plates. 5; Default reader settings were applied for absorbance read at 485 nm (nitrocefin) or 300 nm (meropenem), bandwidth = 5 nm, 25 flashes/well. References: Inglese J, Shamu CE, Guy RK. 2007. Reporting data from high-throughput screening of small-molecule libraries. Nat Chem Biol. doi:10.1038/nchembio0807-438 Yasgar A, Shinn P, Jadhav A, Auld D, Michael S, Zheng W, Austin CP, Inglese J, Simeonov A. 2008. Compound Management for Quantitative High-Throughput Screening. J Lab Autom 13:79 - 89. doi:10.1016/j.jala.2007.12.004
Background: qHTS replaces the single test concentration by a dilution series.
As for `CCC(CC)c1cc([C@H]2CN3CC[C@H]2C[C@@H]3CNC(=O)c2ccc(C)cc2)nc(-c2ccncc2)n1`, the activity, negative = inhibition was inactive: 2.38% [at 38.4 µM].
Regarding `CC(C)NC(=O)NC[C@H]1C[C@@H]2CCN1C[C@@H]2c1cc(C2CCCC2)nn1C`, the activity, negative = inhibition is inactive: 3.9%.
As to `NC(=O)c1ccc(-c2cccc3c2CCNC3)s1`, the activity, negative = inhibition was inactive: 0.0382% [at 38.4 µM].
Consider `CC(=O)Nc1ccc(S(=O)(=O)NC[C@H]2C[C@@H]3CCN2C[C@@H]3c2cc(-c3ccccc3Br)nc(C)n2)cc1`, for which the activity, negative = inhibition was inactive: 10.2% [at 38.4 µM].
To `CC(=O)Nc1ccc(-c2ccc(=O)n3c2[C@@H]2C[C@@H](CN(C(=O)C4CCCCC4)C2)C3)cc1` belongs inactive: -2.71%; to `COc1ccc(C(=O)N2C[C@@H]3C[C@H](C2)c2c(NC(=O)c4ccco4)ccc(=O)n2C3)cc1`, inactive: -22.2%.
Turning to `Cn1cc(C(=O)N2CC[C@@](C)(O)[C@@H](O)C2)c2ccccc21`, the activity, negative = inhibition is inactive: 11.3% [at 38.4 µM].
For the compound `C=C[C@H]1CN2CC[C@H]1C[C@@H]2CNC(=O)Nc1ccc(Oc2ccccc2)cc1`, the activity, negative = inhibition is inactive: -3.86%.
The same measure for `O=C1N(Cc2cccnc2)C[C@H]2CN(C3CCC3)CCN12`: inactive: 0.975% [at 76.7 µM]; for `N#Cc1ccc(C(=O)N2C[C@@H]3C[C@H](C2)c2c(-c4ccccc4F)ccc(=O)n2C3)cc1`: inactive: -5.57%.
`COc1ccc(CN2C[C@@H]3C[C@H]2C(=O)Nc2ccccc2O3)cn1`: the activity, negative = inhibition is inactive: -24.4%.
With `COc1ccc(C(=O)N2[C@H]3CC[C@@H]2c2cnc(C)nc2C3)c(OC)c1`, the activity, negative = inhibition was inactive: 4.19% [at 38.4 µM].
On to `CNCc1cn(C[C@H]2CC3CCN2C[C@@H]3C(=O)NCc2ccccc2)nn1` (stereo not given in full), for which the activity, negative = inhibition is inactive: 0.0925%.
As for `Cc1nc(-c2ccco2)cc([C@H]2CN3CC[C@H]2C[C@@H]3CNC(=O)Nc2ccccc2)n1`, the activity, negative = inhibition was inactive: 2.38%.
With `CSCC(=O)N1C[C@@H]2C[C@H](C1)c1ccc(-c3ccccc3CN(C)C)c(=O)n1C2`, the activity, negative = inhibition was inactive: 25.9%.
To `C#C[C@H]1CN2CC[C@H]1C[C@@H]2CNS(=O)(=O)c1ccc(Cl)cc1` belongs inactive: -1.5%; to `CC[C@H]1CN2CC[C@H]1C[C@@H]2CNCc1ccc(OC)cc1`, inactive: -7.87% [at 76.7 µM].
In the case of `CN(C)C(=O)[C@H]1CN2CCC1C[C@@H]2Cn1cc(CSc2ccccc2)nn1` (stereo not given in full), the activity, negative = inhibition was inactive: 20.8%.
Turning to `CC1CCN(C[C@H]2CN3CC[C@H]2C[C@@H]3CNC(=O)Nc2ccccc2)CC1`, the activity, negative = inhibition is inactive: 3.2%.
As for `CC[C@H]1CN2CC[C@H]1C[C@@H]2CNCc1ccc2c(c1)OCO2`, the activity, negative = inhibition was inactive: -3.61%.
Turning to `CC[C@H]1CN2CC[C@H]1C[C@@H]2CNC(=O)c1ccc(N(C)C)cc1`, the activity, negative = inhibition is inactive: 0.17%.
The same measure for `CC(=O)Nc1ccc(S(=O)(=O)NC[C@H]2C[C@@H]3CCN2C[C@@H]3c2cc(-c3ccco3)nc(C)n2)cc1`: inactive: -2.87% [at 38.4 µM]; for `COc1ccccc1CNC(=O)[C@H]1CN2CC[C@H]1C[C@@H]2Cn1cc(-c2ccccn2)nn1`: inactive: -5.15%.
For the compound `CN(C)C(=O)[C@H]1CN2CCC1C[C@@H]2Cn1cc(-c2cccc(N)c2)nn1` (stereo not given in full), the activity, negative = inhibition is inactive: -0.595%.
Consider `O=C(C1CCCCC1)N1C[C@@H]2C[C@H](C1)c1c(-c3ccc(Cl)cc3)ccc(=O)n1C2`, for which the activity, negative = inhibition was inactive: -8.84%.
In the case of `CC(=O)Nc1ccc(S(=O)(=O)NC[C@H]2C[C@@H]3CCN2C[C@@H]3c2cc(-c3ccccc3)nn2C)cc1`, the activity, negative = inhibition is inactive: 17.5% [at 38.4 µM].
To `COCC1CN(C)CC12CCN(Cc1cccc(OC)n1)CC2` (stereo not given) belongs inactive: 0.593% [at 38.4 µM]; to `O=C(O)CSCC(=O)N1C[C@@H]2C[C@H](C1)c1c(-c3ccccc3F)ccc(=O)n1C2`, inactive: 0.709%.
`COc1ccc(-c2ccc(=O)n3c2[C@@H]2C[C@@H](CN(C(=O)C(C)(C)C)C2)C3)cc1`: the activity, negative = inhibition is inactive: -1.51%.
To `CC(C)(C)c1ccc(-c2cn(C[C@H]3CC4CCN3C[C@@H]4C(=O)NCc3ccccc3)nn2)cc1` (stereo not given in full) belongs inactive: -10.8% [at 38.4 µM].
Turning to `COc1ccc(-c2cc([C@H]3CN4CC[C@H]3C[C@@H]4CNC(=O)C(C)(C)C)nc(C)n2)cc1OC`, the activity, negative = inhibition was inactive: 3.47% [at 38.4 µM].
As to `COc1ccc(CN(Cc2ccc(OC)cc2)C[C@H]2C[C@@H]3CCN2C[C@@H]3c2cc(C3CCCC3)nn2C)cc1`, the activity, negative = inhibition is inactive: -15.2% [at 38.4 µM].
Consider `CN(C)c1ccc(C(=O)NC[C@H]2C[C@@H]3CCN2C[C@@H]3CN(C)c2ccccc2)cc1`, for which the activity, negative = inhibition is inactive: 0.893%.
Take `C#C[C@H]1CN2CC[C@H]1C[C@@H]2CNCc1ccc(C(F)(F)F)cc1`: the activity, negative = inhibition was inactive: 8.9%.
With `CSCC(=O)N1C[C@@H]2C[C@H](C1)c1c(-c3ccc(NC(C)=O)cc3)ccc(=O)n1C2`, the activity, negative = inhibition was inactive: 3.36%.
